No constants are given. Whether binding was seen depends on the method and setting. For some assays here: Binding seen in cells or lysates may run through a third protein. Some entries that bind do so weakly or less than the wild type.

Amino acid sequences for entries named in this document (tags omitted).
UniProt P02730: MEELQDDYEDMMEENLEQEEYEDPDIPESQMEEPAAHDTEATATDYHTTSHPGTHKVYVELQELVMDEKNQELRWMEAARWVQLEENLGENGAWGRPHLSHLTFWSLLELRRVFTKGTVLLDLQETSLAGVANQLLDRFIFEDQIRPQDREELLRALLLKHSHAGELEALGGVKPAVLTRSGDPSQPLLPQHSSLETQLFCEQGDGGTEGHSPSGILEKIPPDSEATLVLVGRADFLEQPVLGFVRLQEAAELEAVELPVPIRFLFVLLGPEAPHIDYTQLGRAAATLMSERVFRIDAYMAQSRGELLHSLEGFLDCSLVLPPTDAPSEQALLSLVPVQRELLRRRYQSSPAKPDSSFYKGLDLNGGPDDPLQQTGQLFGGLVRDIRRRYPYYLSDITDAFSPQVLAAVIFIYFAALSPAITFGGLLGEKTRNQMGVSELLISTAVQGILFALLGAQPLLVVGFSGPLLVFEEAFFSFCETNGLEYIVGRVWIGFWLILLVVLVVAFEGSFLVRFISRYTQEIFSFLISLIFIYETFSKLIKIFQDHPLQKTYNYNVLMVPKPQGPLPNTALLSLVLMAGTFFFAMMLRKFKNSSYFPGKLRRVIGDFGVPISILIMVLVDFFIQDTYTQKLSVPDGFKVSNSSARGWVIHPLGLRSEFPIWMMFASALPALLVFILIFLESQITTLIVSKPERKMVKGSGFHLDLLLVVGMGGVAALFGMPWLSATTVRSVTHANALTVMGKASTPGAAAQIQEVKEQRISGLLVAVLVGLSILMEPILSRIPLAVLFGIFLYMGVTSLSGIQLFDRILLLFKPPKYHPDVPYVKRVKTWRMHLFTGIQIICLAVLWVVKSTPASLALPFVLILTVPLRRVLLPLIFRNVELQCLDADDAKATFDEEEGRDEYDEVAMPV
UniProt P29144: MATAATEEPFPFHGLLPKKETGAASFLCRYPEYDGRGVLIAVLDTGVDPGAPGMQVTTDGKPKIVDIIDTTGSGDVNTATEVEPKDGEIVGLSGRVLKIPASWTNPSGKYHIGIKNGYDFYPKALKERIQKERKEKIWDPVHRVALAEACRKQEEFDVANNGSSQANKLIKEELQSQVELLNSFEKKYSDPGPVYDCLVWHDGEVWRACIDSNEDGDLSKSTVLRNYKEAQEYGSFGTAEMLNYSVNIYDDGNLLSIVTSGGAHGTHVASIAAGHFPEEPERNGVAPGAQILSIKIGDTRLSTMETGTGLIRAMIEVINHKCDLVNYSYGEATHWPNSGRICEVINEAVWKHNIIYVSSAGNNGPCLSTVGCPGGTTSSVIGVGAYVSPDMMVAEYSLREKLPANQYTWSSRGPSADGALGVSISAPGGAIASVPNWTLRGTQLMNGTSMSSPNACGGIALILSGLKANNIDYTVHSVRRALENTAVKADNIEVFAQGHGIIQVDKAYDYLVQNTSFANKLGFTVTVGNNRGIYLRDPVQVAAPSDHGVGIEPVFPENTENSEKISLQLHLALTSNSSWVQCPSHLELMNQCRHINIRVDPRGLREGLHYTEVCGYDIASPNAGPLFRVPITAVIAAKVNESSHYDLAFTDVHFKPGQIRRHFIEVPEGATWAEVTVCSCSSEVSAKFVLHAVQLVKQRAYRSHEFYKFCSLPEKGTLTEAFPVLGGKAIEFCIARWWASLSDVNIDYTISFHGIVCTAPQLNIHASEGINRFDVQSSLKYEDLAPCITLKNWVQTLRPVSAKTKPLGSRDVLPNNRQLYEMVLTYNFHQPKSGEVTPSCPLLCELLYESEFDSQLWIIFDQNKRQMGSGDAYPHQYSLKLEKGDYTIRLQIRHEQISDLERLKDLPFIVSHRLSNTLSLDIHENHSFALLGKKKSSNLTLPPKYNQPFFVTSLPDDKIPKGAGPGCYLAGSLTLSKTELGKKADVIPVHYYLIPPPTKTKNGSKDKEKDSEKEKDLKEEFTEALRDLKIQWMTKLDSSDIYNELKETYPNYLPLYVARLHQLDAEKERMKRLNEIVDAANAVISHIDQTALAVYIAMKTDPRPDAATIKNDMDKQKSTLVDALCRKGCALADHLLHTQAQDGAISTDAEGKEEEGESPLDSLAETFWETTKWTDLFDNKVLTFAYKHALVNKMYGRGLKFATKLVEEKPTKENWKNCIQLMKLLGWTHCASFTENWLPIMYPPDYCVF
UniProt P16157: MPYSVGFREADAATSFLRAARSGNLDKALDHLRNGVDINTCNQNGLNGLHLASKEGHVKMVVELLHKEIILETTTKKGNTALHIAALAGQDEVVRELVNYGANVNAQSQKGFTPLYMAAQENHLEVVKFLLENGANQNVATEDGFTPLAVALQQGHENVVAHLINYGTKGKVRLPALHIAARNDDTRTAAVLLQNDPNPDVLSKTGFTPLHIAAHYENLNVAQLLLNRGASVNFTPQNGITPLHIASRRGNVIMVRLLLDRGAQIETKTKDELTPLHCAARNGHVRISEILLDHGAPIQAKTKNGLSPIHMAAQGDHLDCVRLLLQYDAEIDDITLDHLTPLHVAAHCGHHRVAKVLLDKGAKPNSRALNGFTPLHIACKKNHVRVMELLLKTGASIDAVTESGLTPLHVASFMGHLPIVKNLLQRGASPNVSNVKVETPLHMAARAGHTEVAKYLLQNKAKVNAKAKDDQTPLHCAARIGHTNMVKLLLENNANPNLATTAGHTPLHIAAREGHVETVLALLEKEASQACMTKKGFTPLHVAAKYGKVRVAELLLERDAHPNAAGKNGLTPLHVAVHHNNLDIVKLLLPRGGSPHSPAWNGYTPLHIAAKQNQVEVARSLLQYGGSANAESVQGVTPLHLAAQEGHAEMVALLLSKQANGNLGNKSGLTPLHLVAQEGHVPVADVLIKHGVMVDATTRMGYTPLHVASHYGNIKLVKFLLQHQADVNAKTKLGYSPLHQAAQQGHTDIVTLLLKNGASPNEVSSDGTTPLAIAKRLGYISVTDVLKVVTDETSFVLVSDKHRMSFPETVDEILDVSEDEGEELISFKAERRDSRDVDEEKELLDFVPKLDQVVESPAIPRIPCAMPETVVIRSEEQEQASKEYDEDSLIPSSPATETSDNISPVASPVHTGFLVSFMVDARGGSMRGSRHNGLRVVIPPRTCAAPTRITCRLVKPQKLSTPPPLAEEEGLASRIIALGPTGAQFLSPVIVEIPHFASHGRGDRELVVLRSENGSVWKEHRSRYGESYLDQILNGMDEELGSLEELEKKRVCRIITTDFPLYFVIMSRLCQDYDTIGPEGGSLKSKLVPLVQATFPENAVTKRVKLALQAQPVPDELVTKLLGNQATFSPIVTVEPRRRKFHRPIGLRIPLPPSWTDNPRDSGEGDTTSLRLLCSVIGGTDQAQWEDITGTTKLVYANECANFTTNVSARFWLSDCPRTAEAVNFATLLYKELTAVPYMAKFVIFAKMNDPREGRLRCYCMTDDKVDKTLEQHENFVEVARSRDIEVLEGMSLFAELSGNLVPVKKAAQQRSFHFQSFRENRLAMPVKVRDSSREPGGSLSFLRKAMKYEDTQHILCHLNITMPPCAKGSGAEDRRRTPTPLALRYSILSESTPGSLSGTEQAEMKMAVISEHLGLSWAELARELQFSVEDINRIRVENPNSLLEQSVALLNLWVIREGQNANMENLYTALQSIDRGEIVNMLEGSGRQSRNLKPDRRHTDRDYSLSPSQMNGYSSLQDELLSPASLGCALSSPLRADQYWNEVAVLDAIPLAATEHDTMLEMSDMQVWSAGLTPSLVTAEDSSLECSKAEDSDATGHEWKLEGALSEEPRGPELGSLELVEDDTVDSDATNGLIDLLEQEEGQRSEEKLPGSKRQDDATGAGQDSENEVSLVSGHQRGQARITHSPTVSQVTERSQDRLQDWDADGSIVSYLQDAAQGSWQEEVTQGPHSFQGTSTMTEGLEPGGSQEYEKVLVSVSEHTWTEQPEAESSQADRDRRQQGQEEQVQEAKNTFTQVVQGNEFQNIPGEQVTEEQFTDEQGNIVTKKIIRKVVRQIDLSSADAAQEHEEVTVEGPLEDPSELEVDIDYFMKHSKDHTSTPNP
UniProt P11166: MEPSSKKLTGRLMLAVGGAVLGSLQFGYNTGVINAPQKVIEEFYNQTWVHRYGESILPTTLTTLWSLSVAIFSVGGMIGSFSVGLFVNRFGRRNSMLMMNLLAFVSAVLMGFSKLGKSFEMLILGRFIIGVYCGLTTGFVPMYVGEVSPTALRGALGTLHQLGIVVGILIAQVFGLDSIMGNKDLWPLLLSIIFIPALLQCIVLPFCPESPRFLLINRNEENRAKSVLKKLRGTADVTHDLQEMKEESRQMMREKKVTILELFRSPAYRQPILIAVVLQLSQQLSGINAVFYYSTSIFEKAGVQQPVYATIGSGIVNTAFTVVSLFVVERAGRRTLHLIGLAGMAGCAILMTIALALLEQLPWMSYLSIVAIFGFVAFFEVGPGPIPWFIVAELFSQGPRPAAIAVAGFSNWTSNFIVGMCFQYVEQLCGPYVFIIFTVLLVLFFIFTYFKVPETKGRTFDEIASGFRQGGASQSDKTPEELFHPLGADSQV
UniProt P04406: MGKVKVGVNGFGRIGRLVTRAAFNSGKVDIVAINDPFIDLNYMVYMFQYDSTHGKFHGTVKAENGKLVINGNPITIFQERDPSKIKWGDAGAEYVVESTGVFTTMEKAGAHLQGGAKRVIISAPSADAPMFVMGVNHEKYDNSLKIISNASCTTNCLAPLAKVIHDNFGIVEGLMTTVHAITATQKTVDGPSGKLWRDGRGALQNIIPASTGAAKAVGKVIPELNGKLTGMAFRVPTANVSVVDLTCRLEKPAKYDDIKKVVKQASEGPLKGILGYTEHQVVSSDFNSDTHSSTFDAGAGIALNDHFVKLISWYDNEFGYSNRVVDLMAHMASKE

Experiment [1] concerns the target Band 3 (human (endogenous in red blood cells)) (UniProt P02730). Nature of the experiment: cross-linking.
For experiment [2], the target named is T1, Band 4.2 (human (endogenous in red blood cells)) (UniProt P16452).
T1 sequence: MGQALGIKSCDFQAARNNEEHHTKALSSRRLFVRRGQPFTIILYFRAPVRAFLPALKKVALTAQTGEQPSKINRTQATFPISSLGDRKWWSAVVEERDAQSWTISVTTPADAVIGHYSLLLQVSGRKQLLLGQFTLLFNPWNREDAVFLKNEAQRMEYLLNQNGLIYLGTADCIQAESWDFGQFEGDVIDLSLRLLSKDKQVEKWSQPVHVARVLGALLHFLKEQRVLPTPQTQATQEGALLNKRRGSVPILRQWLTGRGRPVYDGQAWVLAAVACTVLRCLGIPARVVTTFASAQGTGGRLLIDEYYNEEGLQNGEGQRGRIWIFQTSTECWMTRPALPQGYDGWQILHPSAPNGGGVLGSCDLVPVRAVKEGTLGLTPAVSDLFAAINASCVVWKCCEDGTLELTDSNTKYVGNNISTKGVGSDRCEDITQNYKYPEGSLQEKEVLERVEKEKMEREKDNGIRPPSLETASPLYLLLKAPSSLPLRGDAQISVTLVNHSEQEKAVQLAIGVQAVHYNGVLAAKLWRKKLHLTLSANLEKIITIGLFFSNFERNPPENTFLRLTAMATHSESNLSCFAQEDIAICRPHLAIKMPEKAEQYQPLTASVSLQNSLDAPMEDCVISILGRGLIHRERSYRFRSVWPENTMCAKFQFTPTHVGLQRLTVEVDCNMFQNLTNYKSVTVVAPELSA
As to the kind of experiment: cross-linking.

In experiment [3] the target is Tripeptidyl-peptidase 2 (human (endogenous in red blood cells)) (UniProt P29144). As to the kind of experiment: negative stain electron microscopy.
In experiment [4] the target is band 3-Ank1 complex (human (endogenous in red blood cells)) (UniProt P02730+P16157). Nature of the experiment: cross-linking.

As to Ankyrin 1 (from UniProt P16157 1-1881), in experiment [1], the binding entry is reported as “binds”. Take GlutI (from UniProt P11166 1-492): the binding entry in experiment [1] and in experiment [2] was “binds” throughout. For the molecule “Tripeptidyl-peptidase 2 (from UniProt P29144 1-1249) (enzyme)”, the binding result in experiment [3] is “binds”. As to “glyceraldehyde-3-phosphate dehydrogenase (from UniProt P04406 1-335) (enzyme)”, the binding result in experiment [4] is reported as “binds”.

B1: RhAG (protein, UniProt Q02094 1-409)
chain: MRFTFPLMAIVLEIAMIVLFGLFVEYETDQTVLEQLNITKPTDMGIFFELYPLFQDVHVMIFVGFGFLMTFLKKYGFSSVGINLLVAALGLQWGTIVQGILQSQGQKFNIGIKNMINADFSAATVLISFGAVLGKTSPTQMLIMTILEIVFFAHNEYLVSEIFKASDIGASMTIHAFGAYFGLAVAGILYRSGLRKGHENEESAYYSDLFAMIGTLFLWMFWPSFNSAIAEPGDKQCRAIVNTYFSLAACVLTAFAFSSLVEHRGKLNMVHIQNATLAGGVAVGTCADMAIHPFGSMIIGSIAGMVSVLGYKFLTPLFTTKLRIHDTCGVHNLHGLPGVVGGLAGIVAVAMGASNTSMAMQAAALGSSIGTAVVGGLMTGLILKLPLWGQPSDQNCYDDSVYWKVPKTR
As for B1, the binding result in experiment [1] and in experiment [2] was “binds” in each case.

B2: Band 4.2 (protein, UniProt P16452 1-691)
chain: T1 sequence
Take B2: the binding result in experiment [1] was “binds”.

Source of the values: paper doi:10.1101/2021.12.10.472004 (bioRxiv, 2021).
